Test results published in patent US20210238283A1.
Results are given in words; binding and its absence hold for the method and conditions named. Some results given as binding are weak or reduced against the parent protein; the word gives no strength. For some of these results: Sequences can lack the tags named with a protein.

The chains behind the UniProt entries cited, without tags or fusion partners. Residues count along the entry.
UniProt Q61790, residues 24-521: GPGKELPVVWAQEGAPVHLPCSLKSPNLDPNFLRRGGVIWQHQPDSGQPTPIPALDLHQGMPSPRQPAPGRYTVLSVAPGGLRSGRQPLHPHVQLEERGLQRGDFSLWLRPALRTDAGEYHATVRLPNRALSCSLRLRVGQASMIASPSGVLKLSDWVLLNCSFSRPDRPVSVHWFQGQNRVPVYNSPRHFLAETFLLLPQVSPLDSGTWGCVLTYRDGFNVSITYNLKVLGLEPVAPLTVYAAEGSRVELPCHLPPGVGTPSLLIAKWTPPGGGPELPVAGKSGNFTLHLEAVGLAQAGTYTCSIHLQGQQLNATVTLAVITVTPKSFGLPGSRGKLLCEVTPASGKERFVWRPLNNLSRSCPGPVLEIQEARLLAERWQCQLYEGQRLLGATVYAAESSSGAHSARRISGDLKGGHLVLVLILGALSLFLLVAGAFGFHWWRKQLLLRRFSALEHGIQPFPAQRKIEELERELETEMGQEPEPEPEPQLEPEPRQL

Assays:
[1] = target: T1, recombinant human LAG-3-his (#16498-H08H, Sino Biological Inc.) (human) (UniProt P18627); test: scFv phage ELISA on coated antigen, A490
T1 sequence (looked up): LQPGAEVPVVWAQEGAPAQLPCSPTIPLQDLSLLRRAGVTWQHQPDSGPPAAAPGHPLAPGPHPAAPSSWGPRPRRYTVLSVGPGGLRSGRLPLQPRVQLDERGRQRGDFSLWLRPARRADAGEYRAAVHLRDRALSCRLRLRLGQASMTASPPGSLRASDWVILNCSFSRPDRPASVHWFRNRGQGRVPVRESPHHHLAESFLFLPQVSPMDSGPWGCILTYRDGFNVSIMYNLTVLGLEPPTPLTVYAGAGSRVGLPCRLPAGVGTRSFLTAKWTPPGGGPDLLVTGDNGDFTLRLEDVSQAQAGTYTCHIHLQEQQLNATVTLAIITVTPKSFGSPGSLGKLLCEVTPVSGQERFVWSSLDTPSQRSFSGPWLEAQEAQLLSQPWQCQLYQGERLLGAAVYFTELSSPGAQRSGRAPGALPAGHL

[2] = target: T1, recombinant human LAG-3-his (#16498-H08H, Sino Biological Inc.) (human); test: ELISA on coated recombinant LAG-3 protein, A490
[3] = target: human LAG-3 overexpressed on cells (human) (UniProt P18627); test: flow cytometry, HEK293E cells overexpressing LAG-3, antibody 2 µg/ml
[4] = target: mouse LAG-3 overexpressed on HEK293E cells (mouse) (UniProt Q61790); test: as above

Measured: binding

B1: LAG3-1E09_AM_2H01 (antibody, V domains shown)
VH: EVQLVESGGDLVQPGGSLRLSCAASGFTFSDHYMNWVRQAPGKGLEWVAYIDTSATYIYYADSVKGRFTISRDNAKNSLYLQMNSLRAEDTAVYYCARDNWGSLDYWGQGTLVTVSS
VL: DIQMTQSPSSLSASVGDRVTITCQASQDISNYLNWYQQKPGKAPNLLIYDASTLETGVPSRFSGSGYGTDFTLTISGLQPDDFALYYCQQSYSTPYSFGPGTKVEIK
binds: all assays above
